This is an account of results in the supplement of paper PMC10077471.

The full ranking holds about 1,900 compounds; the median of “excess over highest single agent (ExcessHSA) synergy score, 6x6 matrix” is about -83, and the lowest 2% start at about -370. This is one part of the list.

This experiment deals with NCI-H446. Put plainly: excess over highest single agent (ExcessHSA) synergy score, 6x6 matrix; higher = less synergy (more negative = stronger synergy). Conditions: 72 h; CellTiter-Glo viability. For orientation: Cellular ATP, detected with luciferase, serves as a proxy for viable cell number.
Regarding `COC(=O)/C=C/C(=O)OC` + Cc1sc2c(c1C)C(c1ccc(Cl)cc1)=N[C@@H](CC(=O)OC(C)(C)C)c1nnc(C)n1-2 [NCGC00250412-19], the “excess over highest single agent” value was -117.
As for `COc1ccc(-c2oc3cc(OC)ccc3c2C(=O)c2ccc(C#N)cc2)cc1` + Cc1sc2c(c1C)C(c1ccc(Cl)cc1)=N[C@@H](CC(=O)OC(C)(C)C)c1nnc(C)n1-2 [NCGC00250412-19], the “excess over highest single agent” value was -37.5.
With `CNc1nc(Nc2ccc(C(=O)N3CCOCC3)cc2OC)ncc1Cl` + Cc1sc2c(c1C)C(c1ccc(Cl)cc1)=N[C@@H](CC(=O)OC(C)(C)C)c1nnc(C)n1-2 [NCGC00250412-19], the “excess over highest single agent” value was 436.
The same measure for `CC(C)c1cc(C(C)C)c(CC(=O)NS(=O)(=O)Oc2c(C(C)C)cccc2C(C)C)c(C(C)C)c1` + Cc1sc2c(c1C)C(c1ccc(Cl)cc1)=N[C@@H](CC(=O)OC(C)(C)C)c1nnc(C)n1-2 [NCGC00250412-19]: -149; for `CC(=O)O[C@H]1C[C@@H]2CC[C@@H]3[C@H](CC[C@@]4(C)[C@H]3C[C@H]([N+]3(C)CCCCC3)[C@@H]4OC(C)=O)[C@@]2(C)C[C@@H]1[N+]1(C)CCCCC1` + Cc1sc2c(c1C)C(c1ccc(Cl)cc1)=N[C@@H](CC(=O)OC(C)(C)C)c1nnc(C)n1-2 [NCGC00250412-19]: 50.1; for `O=C1c2c(O)ccc(O)c2C(=O)c2c(NCCNCCO)ccc(NCCNCCO)c21` + Cc1sc2c(c1C)C(c1ccc(Cl)cc1)=N[C@@H](CC(=O)OC(C)(C)C)c1nnc(C)n1-2 [NCGC00250412-19]: -211.
In the case of `N[C@@H](Cc1ccc(O)c(O)c1)C(=O)O` + Cc1sc2c(c1C)C(c1ccc(Cl)cc1)=N[C@@H](CC(=O)OC(C)(C)C)c1nnc(C)n1-2 [NCGC00250412-19], the “excess over highest single agent” value amounted to 57.6.
On to `CCCCCCCCOc1ccccc1C(=O)Nc1ccc(C(=O)OCC[N+](C)(CC)CC)cc1` + Cc1sc2c(c1C)C(c1ccc(Cl)cc1)=N[C@@H](CC(=O)OC(C)(C)C)c1nnc(C)n1-2 [NCGC00250412-19], for which the “excess over highest single agent” value was -51.4.
In the case of `CN1CCCN(C(=O)c2cccc(-c3ccc(/C=C4/C(=O)Nc5ccc(Cl)cc54)o3)c2)CC1` + Cc1sc2c(c1C)C(c1ccc(Cl)cc1)=N[C@@H](CC(=O)OC(C)(C)C)c1nnc(C)n1-2 [NCGC00250412-19], the “excess over highest single agent” value is -186.
The value for `CN1CCN2c3ccccc3Cc3ccccc3C2C1` (configuration not stated) + Cc1sc2c(c1C)C(c1ccc(Cl)cc1)=N[C@@H](CC(=O)OC(C)(C)C)c1nnc(C)n1-2 [NCGC00250412-19] was -69.7; that for `CN(c1ncccc1CNc1nc(Nc2ccc3c(c2)CC(=O)N3)ncc1C(F)(F)F)S(C)(=O)=O` + Cc1sc2c(c1C)C(c1ccc(Cl)cc1)=N[C@@H](CC(=O)OC(C)(C)C)c1nnc(C)n1-2 [NCGC00250412-19] was -151; that for `CN(C)CCc1c[nH]c2ccc(CS(=O)(=O)N3CCCC3)cc12` + Cc1sc2c(c1C)C(c1ccc(Cl)cc1)=N[C@@H](CC(=O)OC(C)(C)C)c1nnc(C)n1-2 [NCGC00250412-19] was -94.8.
In the case of `CCc1ccc(OCc2ccccc2C(=O)Nc2ccc3nc(C)cc(N)c3c2)cc1` + Cc1sc2c(c1C)C(c1ccc(Cl)cc1)=N[C@@H](CC(=O)OC(C)(C)C)c1nnc(C)n1-2 [NCGC00250412-19], the “excess over highest single agent” value is -143.
As for `O=C1C=CC[C@@H]2[C@H]3CCCN4CCC[C@@H](CN12)[C@@H]34` + Cc1sc2c(c1C)C(c1ccc(Cl)cc1)=N[C@@H](CC(=O)OC(C)(C)C)c1nnc(C)n1-2 [NCGC00250412-19], the “excess over highest single agent” value was -63.1.
The value for `Cc1cnc(NC(=O)Nc2cc(Br)c(C)cc2OC[C@@H]2CNCCO2)cn1` + Cc1sc2c(c1C)C(c1ccc(Cl)cc1)=N[C@@H](CC(=O)OC(C)(C)C)c1nnc(C)n1-2 [NCGC00250412-19] was 49.6.
On to `CSCC[C@H](NC(=O)[C@H](Cc1c[nH]c2ccccc12)NC(=O)CCNC(=O)OC(C)(C)C)C(=O)N[C@@H](CC(=O)O)C(=O)N[C@@H](Cc1ccccc1)C(N)=O` + Cc1sc2c(c1C)C(c1ccc(Cl)cc1)=N[C@@H](CC(=O)OC(C)(C)C)c1nnc(C)n1-2 [NCGC00250412-19], for which the “excess over highest single agent” value was 9.4.
In the case of `Nc1cc(C(F)(F)F)c(-c2cc(N3CCOCC3)nc(N3CCOCC3)n2)cn1` + Cc1sc2c(c1C)C(c1ccc(Cl)cc1)=N[C@@H](CC(=O)OC(C)(C)C)c1nnc(C)n1-2 [NCGC00250412-19], the “excess over highest single agent” value was -104.
The same measure for `Cc1c(C(=O)Nc2ccc(N3C[C@@H](C)O[C@@H](C)C3)nc2)cccc1-c1ccc(OC(F)(F)F)cc1` + Cc1sc2c(c1C)C(c1ccc(Cl)cc1)=N[C@@H](CC(=O)OC(C)(C)C)c1nnc(C)n1-2 [NCGC00250412-19]: -53.8.
The same measure for `O=c1cc(N2CCOCC2)oc2c(-c3ccccc3)cccc12` + Cc1sc2c(c1C)C(c1ccc(Cl)cc1)=N[C@@H](CC(=O)OC(C)(C)C)c1nnc(C)n1-2 [NCGC00250412-19]: 83.7; for `COC(=O)[C@@H](N)CCCNC(=N)N[N+](=O)[O-]` + Cc1sc2c(c1C)C(c1ccc(Cl)cc1)=N[C@@H](CC(=O)OC(C)(C)C)c1nnc(C)n1-2 [NCGC00250412-19]: 16.4.
The value for `CCc1ccc(/C=C2/SC(=S)NC2=O)cc1` + Cc1sc2c(c1C)C(c1ccc(Cl)cc1)=N[C@@H](CC(=O)OC(C)(C)C)c1nnc(C)n1-2 [NCGC00250412-19] was -178; that for `Cc1ccc(Nc2nccc(N(C)c3ccc4c(C)n(C)nc4c3)n2)cc1S(N)(=O)=O` + Cc1sc2c(c1C)C(c1ccc(Cl)cc1)=N[C@@H](CC(=O)OC(C)(C)C)c1nnc(C)n1-2 [NCGC00250412-19] was 102; that for `COc1cc(Nc2ncc3c(n2)-c2ccc(Cl)cc2C(c2c(F)cccc2OC)=NC3)ccc1C(=O)O` + Cc1sc2c(c1C)C(c1ccc(Cl)cc1)=N[C@@H](CC(=O)OC(C)(C)C)c1nnc(C)n1-2 [NCGC00250412-19] was -246.
With `COc1cc2cc(c1Cl)N(C)C(=O)C[C@H](OC(=O)C(C)C)[C@]1(C)O[C@@H]1[C@H](C)[C@@H]1C[C@@](O)(NC(=O)O1)[C@H](OC)/C=C/C=C(\C)C2` + Cc1sc2c(c1C)C(c1ccc(Cl)cc1)=N[C@@H](CC(=O)OC(C)(C)C)c1nnc(C)n1-2 [NCGC00250412-19], the “excess over highest single agent” value is -31.3.
The value for `O=C(NCC1CCOCC1)c1cnc(Nc2ccc(Cl)cc2Cl)nc1C(F)(F)F` + Cc1sc2c(c1C)C(c1ccc(Cl)cc1)=N[C@@H](CC(=O)OC(C)(C)C)c1nnc(C)n1-2 [NCGC00250412-19] was -98.5; that for `CC(C)(C)c1cc(C(C)(C)C)c(NC(=O)c2c[nH]c3ccccc3c2=O)cc1O` + Cc1sc2c(c1C)C(c1ccc(Cl)cc1)=N[C@@H](CC(=O)OC(C)(C)C)c1nnc(C)n1-2 [NCGC00250412-19] was -82.6; that for `Cc1ccc([C@@H]2O[C@H](CO)[C@@H](O)[C@H](O)[C@H]2O)cc1Cc1ccc(-c2ccc(F)cc2)s1` + Cc1sc2c(c1C)C(c1ccc(Cl)cc1)=N[C@@H](CC(=O)OC(C)(C)C)c1nnc(C)n1-2 [NCGC00250412-19] was -45.9.
For `Cn1c(CCCC(=O)O)nc2cc(N(CCCl)CCCl)ccc21` + Cc1sc2c(c1C)C(c1ccc(Cl)cc1)=N[C@@H](CC(=O)OC(C)(C)C)c1nnc(C)n1-2 [NCGC00250412-19], the “excess over highest single agent” value was determined as 14.8.
Turning to `CC(C)NC[C@@H](C(=O)N1CCN(c2ncnc3c2[C@H](C)C[C@H]3O)CC1)c1ccc(Cl)cc1` + Cc1sc2c(c1C)C(c1ccc(Cl)cc1)=N[C@@H](CC(=O)OC(C)(C)C)c1nnc(C)n1-2 [NCGC00250412-19], the “excess over highest single agent” value was -170.
The same measure for `COC(=O)Nc1nc2cc(Sc3ccccc3)ccc2[nH]1` + Cc1sc2c(c1C)C(c1ccc(Cl)cc1)=N[C@@H](CC(=O)OC(C)(C)C)c1nnc(C)n1-2 [NCGC00250412-19]: -104; for `Cc1cc(/C=c2/sc3nc4ccccc4n3c2=O)c(C)n1-c1ccccc1` + Cc1sc2c(c1C)C(c1ccc(Cl)cc1)=N[C@@H](CC(=O)OC(C)(C)C)c1nnc(C)n1-2 [NCGC00250412-19]: -149.
On to `COCC(=O)NC/C=C/c1ccc2ncnc(Nc3ccc(Oc4ccc(C)nc4)c(C)c3)c2c1` + Cc1sc2c(c1C)C(c1ccc(Cl)cc1)=N[C@@H](CC(=O)OC(C)(C)C)c1nnc(C)n1-2 [NCGC00250412-19], for which the “excess over highest single agent” value amounted to 111.
The same measure for `O=C(O)CC/C=C\CC[C@@H]1[C@@H](N2CCCCC2)[C@@H](O)C[C@@H]1OCc1ccc(-c2ccccc2)cc1` + Cc1sc2c(c1C)C(c1ccc(Cl)cc1)=N[C@@H](CC(=O)OC(C)(C)C)c1nnc(C)n1-2 [NCGC00250412-19]: -238; for `C=CC(=O)Nc1cccc(Sc2nc(Nc3ccc(N4CCN(C)CC4)cc3)ncc2Cl)c1` + Cc1sc2c(c1C)C(c1ccc(Cl)cc1)=N[C@@H](CC(=O)OC(C)(C)C)c1nnc(C)n1-2 [NCGC00250412-19]: -194; for `CCOC(=O)[C@H]1O[C@@H]1C(=O)N[C@@H](CC(C)C)C(=O)NCCC(C)C` + Cc1sc2c(c1C)C(c1ccc(Cl)cc1)=N[C@@H](CC(=O)OC(C)(C)C)c1nnc(C)n1-2 [NCGC00250412-19]: -33.8.
The value for `COc1cc(Nc2c(C#N)cnc3cc(OCCCN4CCN(C)CC4)c(OC)cc23)c(Cl)cc1Cl` + Cc1sc2c(c1C)C(c1ccc(Cl)cc1)=N[C@@H](CC(=O)OC(C)(C)C)c1nnc(C)n1-2 [NCGC00250412-19] was 100; that for `CC(=O)OC[C@H]1O[C@@H]([S-])[C@H](OC(C)=O)[C@@H](OC(C)=O)[C@@H]1OC(C)=O.CCP(CC)CC.[Au+]` + Cc1sc2c(c1C)C(c1ccc(Cl)cc1)=N[C@@H](CC(=O)OC(C)(C)C)c1nnc(C)n1-2 [NCGC00250412-19] was -83.2.
